PMC7555659
No constants are given. Whether binding was seen depends on the method and setting. Binding seen in cells or lysates may run through a third protein.

Protein sequences, listed by entry. Tags and fused reporters are not part of them.
UniProt P14602: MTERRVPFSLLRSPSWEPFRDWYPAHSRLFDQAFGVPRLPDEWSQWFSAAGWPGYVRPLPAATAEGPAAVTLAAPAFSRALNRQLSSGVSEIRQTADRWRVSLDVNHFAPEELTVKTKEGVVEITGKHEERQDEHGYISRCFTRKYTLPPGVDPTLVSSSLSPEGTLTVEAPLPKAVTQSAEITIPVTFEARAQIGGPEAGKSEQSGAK
UniProt P34152: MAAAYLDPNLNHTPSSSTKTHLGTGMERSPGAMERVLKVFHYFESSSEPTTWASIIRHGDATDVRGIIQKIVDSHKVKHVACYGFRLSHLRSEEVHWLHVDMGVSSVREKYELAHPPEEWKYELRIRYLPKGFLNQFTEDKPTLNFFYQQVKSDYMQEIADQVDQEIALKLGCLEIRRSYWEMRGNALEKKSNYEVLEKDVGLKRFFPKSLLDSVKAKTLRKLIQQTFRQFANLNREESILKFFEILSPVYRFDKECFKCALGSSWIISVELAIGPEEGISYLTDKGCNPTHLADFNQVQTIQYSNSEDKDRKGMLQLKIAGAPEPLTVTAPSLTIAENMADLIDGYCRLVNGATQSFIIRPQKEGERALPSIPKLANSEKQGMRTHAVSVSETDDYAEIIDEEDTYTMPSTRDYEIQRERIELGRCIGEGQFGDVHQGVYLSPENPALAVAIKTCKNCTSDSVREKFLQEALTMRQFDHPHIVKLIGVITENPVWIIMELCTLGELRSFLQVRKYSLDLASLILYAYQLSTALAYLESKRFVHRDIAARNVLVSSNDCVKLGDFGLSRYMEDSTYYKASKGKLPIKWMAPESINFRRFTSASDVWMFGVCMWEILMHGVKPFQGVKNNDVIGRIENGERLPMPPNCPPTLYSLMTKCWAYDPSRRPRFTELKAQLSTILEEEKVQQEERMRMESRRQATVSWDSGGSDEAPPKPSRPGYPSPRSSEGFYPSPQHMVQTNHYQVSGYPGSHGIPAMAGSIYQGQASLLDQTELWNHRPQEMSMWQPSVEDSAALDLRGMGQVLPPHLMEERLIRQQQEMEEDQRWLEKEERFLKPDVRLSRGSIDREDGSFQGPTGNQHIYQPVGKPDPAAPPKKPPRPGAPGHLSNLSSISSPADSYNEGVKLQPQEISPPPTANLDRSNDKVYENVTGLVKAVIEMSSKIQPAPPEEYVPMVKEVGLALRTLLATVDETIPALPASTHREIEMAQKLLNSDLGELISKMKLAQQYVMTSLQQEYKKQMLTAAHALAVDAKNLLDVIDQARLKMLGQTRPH

Target: heat shock protein 25 (mouse (endogenous in hippocampus)) (UniProt P14602)
Assay: co-IP; whole hippocampus of P2X7R KO mice 7 days after KA, lysed in RIPA buffer (50 mM Tris-HCl pH 8.0, 1% Nonidet P-40, 0.5% deoxycholate, 0.1% SDS); HSP25 antibody and protein G Sepharose overnight at 4 °C; Western blot; vehicle-infused

binding: no binding
Substance: focal adhesion kinase (from UniProt P34152 1-1052)
